Experimental findings from doi:10.1101/2024.10.03.616509 are described below.

In assay [1] the target is T1, MBP-TECPR2 (935-1411 aa) (human) (UniProt O15040).
T1 sequence: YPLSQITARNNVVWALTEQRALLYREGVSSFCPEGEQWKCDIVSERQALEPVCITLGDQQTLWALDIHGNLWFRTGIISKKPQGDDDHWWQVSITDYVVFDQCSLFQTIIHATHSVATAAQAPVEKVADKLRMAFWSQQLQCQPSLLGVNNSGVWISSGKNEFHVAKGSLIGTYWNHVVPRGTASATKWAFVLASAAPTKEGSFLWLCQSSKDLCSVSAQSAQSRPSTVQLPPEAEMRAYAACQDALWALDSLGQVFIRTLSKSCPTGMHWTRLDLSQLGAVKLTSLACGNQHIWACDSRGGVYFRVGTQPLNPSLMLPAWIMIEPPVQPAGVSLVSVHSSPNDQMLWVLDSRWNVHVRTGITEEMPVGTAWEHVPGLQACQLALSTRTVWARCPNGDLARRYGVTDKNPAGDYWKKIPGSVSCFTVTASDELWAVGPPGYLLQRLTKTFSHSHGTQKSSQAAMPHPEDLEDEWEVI
The experiment in a line: pull-down.

Assay [2] deals with GST-Rab5 (Q79L). The experiment in a line: pull-down.
Assay [3] addresses GST-Rab5 (S34N). The assay can be described thus: pull-down.
In assay [4] the target is GFP-Rab5 (WT). The experiment in a line: co-IP.
Assay [5] concerns the target GFP-Rab5 (Q79L). The experiment in a line: co-IP.
For assay [6], the target named is GFP-Rab5 (S34N). The experiment in a line: co-IP.
Assay [7] addresses Rab5 (Q79L). The experiment in a line: two-hybrid.
In assay [8] the target is Rab5 (WT). The experiment in a line: two-hybrid.
The target of assay [9] is Rab5 (S34N). The assay can be described thus: two-hybrid.
The target of assay [10] is endogenous Rab5 (human (endogenous in HEK293T)). The experiment in a line: co-IP.

Where a chain is given by its changes, count along the chain named. Names may count otherwise. These are yes or no findings as the source states them, for the method shown. For part of these data: Binding can be weak; no strength is given. For part of these data: Tags and fused reporters may be left off the sequences shown. For part of these data: In cells and extracts the contact can be indirect.

GFP-Rab5 (Q79L): in [1], the binding entry is “binds”.

B1: MBP-TECPR2 (935-1411 aa) (domain or fragment, UniProt O15040 935-1411)
chain: T1 sequence
Turning to B1, the binding result in assay [2] is reported as “binds”; in assay [3] it was “binds weakly”.

B2: FLAG-TECPR2 (WT) (protein, UniProt O15040 1-1411)
chain: MASISEPVTFREFCPLYYLLNAIPTKIQKGFRSIVVYLTALDTNGDYIAVGSSIGMLYLYCRHLNQMRKYNFEGKTESITVVKLLSCFDDLVAAGTASGRVAVFQLVSSLPGRNKQLRRFDVTGIHKNSITALAWSPNGMKLFSGDDKGKIVYSSLDLDQGLCNSQLVLEEPSSIVQLDYSQKVLLVSTLQRSLLFYTEEKSVRQIGTQPRKSTGKFGACFIPGLCKQSDLTLYASRPGLRLWKADVHGTVQATFILKDAFAGGVKPFELHPRLESPNSGSCSLPERHLGLVSCFFQEGWVLSWNEYSIYLLDTVNQATVAGLEGSGDIVSVSCTENEIFFLKGDRNIIRISSRPEGLTSTVRDGLEMSGCSERVHVQQAEKLPGATVSETRLRGSSMASSVASEPRSRSSSLNSTDSGSGLLPPGLQATPELGKGSQPLSQRFNAISSEDFDQELVVKPIKVKRKKKKKKTEGGSRSTCHSSLESTPCSEFPGDSPQSLNTDLLSMTSSVLGSSVDQLSAESPDQESSFNGEVNGVPQENTDPETFNVLEVSGSMPDSLAEEDDIRTEMPHCHHAHGRELLNGAREDVGGSDVTGLGDEPCPADDGPNSTQLPFQEQDSSPGAHDGEDIQPIGPQSTFCEVPLLNSLTVPSSLSWAPSAEQWLPGTRADEGSPVEPSQEQDILTSMEASGHLSTNLWHAVTDDDTGQKEIPISERVLGSVGGQLTPVSALAASTHKPWLEQPPRDQTLTSSDEEDIYAHGLPSSSSETSVTELGPSCSQQDLSRLGAEDAGLLKPDQFAESWMGYSGPGYGILSLVVSEKYIWCLDYKGGLFCSALPGAGLRWQKFEDAVQQVAVSPSGALLWKIEQKSNRAFACGKVTIKGKRHWYEALPQAVFVALSDDTAWIIRTSGDLYLQTGLSVDRPCARAVKVDCPYPLSQITARNNVVWALTEQRALLYREGVSSFCPEGEQWKCDIVSERQALEPVCITLGDQQTLWALDIHGNLWFRTGIISKKPQGDDDHWWQVSITDYVVFDQCSLFQTIIHATHSVATAAQAPVEKVADKLRMAFWSQQLQCQPSLLGVNNSGVWISSGKNEFHVAKGSLIGTYWNHVVPRGTASATKWAFVLASAAPTKEGSFLWLCQSSKDLCSVSAQSAQSRPSTVQLPPEAEMRAYAACQDALWALDSLGQVFIRTLSKSCPTGMHWTRLDLSQLGAVKLTSLACGNQHIWACDSRGGVYFRVGTQPLNPSLMLPAWIMIEPPVQPAGVSLVSVHSSPNDQMLWVLDSRWNVHVRTGITEEMPVGTAWEHVPGLQACQLALSTRTVWARCPNGDLARRYGVTDKNPAGDYWKKIPGSVSCFTVTASDELWAVGPPGYLLQRLTKTFSHSHGTQKSSQAAMPHPEDLEDEWEVI
For B2, the binding entry in assay [4] is on record as “binds”; in assay [5], “binds”; in [6], “binds weakly”.

B3: TECPR2 (WT) (protein, UniProt O15040 1-1411)
chain: B2 chain
Regarding B3, the figures for the binding entry in [7], in assay [8] and in assay [9] were “binds”, “binds” and “no binding”, respectively.

B4: FLAG-TECPR2 (D1000Y) (protein, UniProt O15040 1-1411)
chain: B2 chain with D1000Y
As for B4, the binding entry in assay [5] is on record as “no binding”.

B5: endogenous TECPR2 (protein, UniProt O15040 1-1411)
chain: B2 chain
Regarding B5, in [10], the binding entry was “binds”.

B6: FLAG-TECPR2 (R1336W) (protein, UniProt O15040 1-1411)
chain: B2 chain with R1336W
With B6, the binding result in [5] is “no binding”.
